Assay results taken from paper PMC9472820.
These are yes or no findings as the source states them, for the method shown. In cells and extracts the contact can be indirect. Some entries that bind do so weakly or less than the wild type.

Protein sequences, listed by entry. Tags and fused reporters are not part of them. Residues count along the entry.
UniProt P35869, residues 11-848: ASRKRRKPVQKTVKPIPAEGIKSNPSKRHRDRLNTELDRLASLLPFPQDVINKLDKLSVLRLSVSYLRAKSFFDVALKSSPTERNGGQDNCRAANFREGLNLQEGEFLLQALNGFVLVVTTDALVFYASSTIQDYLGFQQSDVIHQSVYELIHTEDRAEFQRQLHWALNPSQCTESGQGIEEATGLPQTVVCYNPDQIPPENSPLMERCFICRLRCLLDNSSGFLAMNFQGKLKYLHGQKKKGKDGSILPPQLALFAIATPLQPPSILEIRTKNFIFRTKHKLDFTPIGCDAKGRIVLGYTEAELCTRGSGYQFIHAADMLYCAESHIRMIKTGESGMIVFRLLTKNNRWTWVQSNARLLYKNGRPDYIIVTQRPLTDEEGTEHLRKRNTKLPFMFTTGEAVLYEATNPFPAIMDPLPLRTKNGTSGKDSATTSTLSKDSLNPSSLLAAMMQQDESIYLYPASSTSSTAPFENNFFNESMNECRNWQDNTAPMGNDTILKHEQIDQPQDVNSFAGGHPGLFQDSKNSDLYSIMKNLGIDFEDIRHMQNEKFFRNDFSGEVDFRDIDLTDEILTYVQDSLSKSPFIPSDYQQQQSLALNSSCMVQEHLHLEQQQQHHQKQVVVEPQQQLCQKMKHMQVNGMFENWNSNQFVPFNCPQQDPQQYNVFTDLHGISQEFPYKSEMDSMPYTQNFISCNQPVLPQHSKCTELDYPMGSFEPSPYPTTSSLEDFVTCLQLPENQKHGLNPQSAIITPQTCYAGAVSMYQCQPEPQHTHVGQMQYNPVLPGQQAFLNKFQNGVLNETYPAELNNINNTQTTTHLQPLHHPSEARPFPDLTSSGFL
UniProt P42224: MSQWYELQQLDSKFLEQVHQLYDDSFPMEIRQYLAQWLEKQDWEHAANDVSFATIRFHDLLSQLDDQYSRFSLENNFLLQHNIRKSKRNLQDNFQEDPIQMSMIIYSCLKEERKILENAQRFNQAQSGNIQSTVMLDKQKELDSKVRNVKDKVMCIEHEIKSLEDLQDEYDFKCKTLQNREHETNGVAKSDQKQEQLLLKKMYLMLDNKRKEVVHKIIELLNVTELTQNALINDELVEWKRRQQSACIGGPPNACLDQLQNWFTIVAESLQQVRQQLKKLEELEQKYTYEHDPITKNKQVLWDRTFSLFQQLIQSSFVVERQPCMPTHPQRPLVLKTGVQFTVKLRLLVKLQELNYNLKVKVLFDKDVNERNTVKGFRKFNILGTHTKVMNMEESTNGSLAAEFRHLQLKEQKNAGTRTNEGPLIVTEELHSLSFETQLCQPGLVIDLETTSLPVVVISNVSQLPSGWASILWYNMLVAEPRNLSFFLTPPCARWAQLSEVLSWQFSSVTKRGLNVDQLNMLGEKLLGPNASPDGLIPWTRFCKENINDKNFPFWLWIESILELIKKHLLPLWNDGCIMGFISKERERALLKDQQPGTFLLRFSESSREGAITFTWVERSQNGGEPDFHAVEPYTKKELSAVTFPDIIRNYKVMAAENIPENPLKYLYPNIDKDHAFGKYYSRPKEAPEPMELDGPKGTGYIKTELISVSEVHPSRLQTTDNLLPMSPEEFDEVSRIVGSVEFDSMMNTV

Target: Aryl hydrocarbon receptor (human (endogenous in HPAF-II)) (UniProt P35869)
Experiment: co-IP; HPAF-II cells cultured without and with increasing concentrations of carbidopa; whole cell lysates; immunoprecipitation with anti-AhR or anti-STAT1 antibody, rabbit IgG isotype control; SDS-PAGE and Western blotting

binding	Substance
binds	Signal transducer and activator of transcription 1, total form (from UniProt P42224 1-750)
binds	Phospho-STAT1 (from UniProt P42224 1-750)
